# Reference: PMC3778944
# The chains behind the UniProt entries cited, without tags or fusion partners.
# UniProt Q9NUW8, whole entry H263A: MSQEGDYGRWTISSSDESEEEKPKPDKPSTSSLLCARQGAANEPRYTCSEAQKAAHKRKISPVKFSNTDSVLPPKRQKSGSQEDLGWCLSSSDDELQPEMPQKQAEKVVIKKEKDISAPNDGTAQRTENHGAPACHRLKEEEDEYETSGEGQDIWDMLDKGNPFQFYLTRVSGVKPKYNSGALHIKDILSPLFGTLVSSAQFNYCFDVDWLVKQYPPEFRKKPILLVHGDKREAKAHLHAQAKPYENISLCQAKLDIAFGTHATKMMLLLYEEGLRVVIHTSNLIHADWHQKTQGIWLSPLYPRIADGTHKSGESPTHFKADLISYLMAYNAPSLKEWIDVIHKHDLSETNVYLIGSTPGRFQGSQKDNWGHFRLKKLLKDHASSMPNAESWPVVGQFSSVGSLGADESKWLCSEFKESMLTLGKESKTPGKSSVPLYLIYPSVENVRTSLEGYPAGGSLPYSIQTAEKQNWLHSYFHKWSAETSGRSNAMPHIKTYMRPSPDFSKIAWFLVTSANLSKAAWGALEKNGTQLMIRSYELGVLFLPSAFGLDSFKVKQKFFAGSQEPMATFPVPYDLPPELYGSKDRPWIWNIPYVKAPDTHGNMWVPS
# UniProt Q9NUW8, whole entry H493R: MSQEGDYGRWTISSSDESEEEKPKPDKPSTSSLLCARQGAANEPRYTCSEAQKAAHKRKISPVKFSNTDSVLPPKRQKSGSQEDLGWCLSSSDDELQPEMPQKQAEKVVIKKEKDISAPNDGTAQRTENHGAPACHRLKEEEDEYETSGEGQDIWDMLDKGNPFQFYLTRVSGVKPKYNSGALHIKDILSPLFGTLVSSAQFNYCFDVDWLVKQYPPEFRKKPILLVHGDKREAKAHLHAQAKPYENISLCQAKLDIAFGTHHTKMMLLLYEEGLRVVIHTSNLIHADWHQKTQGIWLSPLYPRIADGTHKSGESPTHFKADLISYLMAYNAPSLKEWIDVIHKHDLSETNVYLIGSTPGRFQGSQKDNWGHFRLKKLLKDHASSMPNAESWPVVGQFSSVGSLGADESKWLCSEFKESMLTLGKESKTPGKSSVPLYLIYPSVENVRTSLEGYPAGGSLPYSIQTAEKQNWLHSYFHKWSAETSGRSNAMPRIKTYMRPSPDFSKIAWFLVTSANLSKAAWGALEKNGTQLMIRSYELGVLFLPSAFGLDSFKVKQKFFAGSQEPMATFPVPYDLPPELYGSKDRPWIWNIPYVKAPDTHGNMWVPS
# For at least one entry, the source does not settle the construct or the ends of the probe. At least one verdict was read from the data and is not stated in words by the source.
# Key:
# [1] = molecular target: Tdp1 H263A (human) (UniProt Q9NUW8); assay: EMSA; conditions: 1-10 nM, on ice, made by UDG, 50 mM Tris-HCl pH 7.5, 50 mM KCl, 10 nM 5'-32P DNA, UDG pretreatment (0.5 U/ul, 15 min, 37 C), complexes formed on ice, 5% native PAGE in TBE at 4 C, recombinant protein, protein details: Ni-chelating resin purification (His tag implied)
# [2] = molecular target: Tdp1 SCAN1 H493R (human) (UniProt Q9NUW8); assay: EMSA; conditions: 1-10 nM, on ice, made by UDG, 50 mM Tris-HCl pH 7.5, 50 mM KCl, 10 nM 5'-32P DNA, UDG pretreatment (0.5 U/ul, 15 min, 37 C), complexes formed on ice, 5% native PAGE in TBE at 4 C, recombinant protein, protein details: Ni-chelating resin purification (His tag implied)
# [3] = AP site at the U of strand 1 (position 25), label: 5'-32P (strand 1)
# [4] = AP site at the U (position 25), label: 5'-32P, single-stranded DNA
Sequence,"binding result [1, 3]","binding result [2, 3]","binding result [1, 4]","binding result [2, 4]"
CTATGGCGAGGCGATTAAGTTGGGUACGTCAGGGTCTTCCGAACGAC / GTCGTTCGGAAGACCCTGACGTTGCCCAACTTAATCGCCTCGCCATAG [dsAP-DNA],binds,binds,–,–
CTATGGCGAGGCGATTAAGTTGGGUACGTCAGGGTCTTCCGAACGAC [ssAP-DNA],–,–,binds,binds
